Measured values: PubChem BioAssay AID445 (National Center for Advancing Translational Sciences (NCATS), 2006)
This is one part of the list. Further columns of the screen follow, without active or inactive calls. Compounds called inactive in the main read-out are mostly missing here. Potencies come from curve fits of mixed quality, noted in brackets.

Assay: IkB Signaling
Conditions: ABC-DLBCL IkBa-CBG/CBR dual luciferase ratio (green luciferase fused to IkBa over red control in OCI-Ly3 lymphoma cells), 4 h; measured here: control luc red channel unless noted
In short: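 Curves were fitted separately to fusion (green), unfused (red) and ratio luminescence, then classed by r2, magnitude and activity. Cells: OCI-Ly3, 4 h compound plus doxycycline at 37C; 10 uM MG-132 defined full response.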

| SMILES | AC50 |
| --- | --- |
| CCc1cnc2c(c1SCC(=O)Nc1ccc(C(=O)OC)cc1)c(=O)n(C)c(=O)n2C | 0.251 µM [falling, partial curve, poor fit] |
| O=C(COC(=O)c1cccc(NC(=O)c2ccc(Br)cc2)c1)c1ccc(Cl)cc1 | 12.6 µM [falling, partial curve] |
| Cc1cccc(Cn2c(COc3ccccc3)nc3ccccc32)c1 | 15.8 µM [falling, partial curve] |
| CCOC(=O)c1nn(-c2ccc(OC)cc2)c(=O)c2c(N)scc12 | 39.8 µM [rising, single point] [measured here: IkB-luc green channel] |
| O=C(NCc1cccs1)c1ccc(CSc2nc3ccncc3n2Cc2ccccc2F)cc1 | 15.8 µM [falling, single point] |
| Cc1ccc(C(=O)CSc2nnc(-c3ccco3)n2Cc2ccccc2)cc1 | 15.8 µM [falling, partial curve] |
| Cc1cc(/C=N/n2cnnc2)c(C)n1-c1ccc(OCc2ccccc2F)cc1 | 7.94 µM [falling, full curve] |
| COc1cc(Cl)c(C)cc1Nc1nc2ccccc2n2cnnc12 | 5.01 µM [rising, full curve, poor fit] |
| O=C(NCCc1csc(-c2ccc(F)cc2)n1)c1cccc(F)c1 | 20 µM [falling, partial curve] |
| COc1ccc(NC(=O)c2nc(-c3ccc(C)cc3)n3c2CCCCC3)c(OC)c1 | 39.8 µM [falling, single point] |
| CCc1cccc(C)c1NC(=O)c1cnn(-c2ccc(OC)cc2)c1C1CCN(C(=O)OC(C)(C)C)CC1 | 20 µM [falling, partial curve] |
| Nc1nc(Sc2ccc([N+](=O)[O-])c3nonc23)c2[nH]cnc2n1 | 3.98 µM [rising, partial curve] [measured here: IkB-luc green channel] |
| CCOCCc1nn2c(=O)cc(COC(=O)c3ccc(NC(=O)C(C)(C)C)cc3)nc2s1 | 39.8 µM [falling, single point] |
| COCCNC(=O)c1cc(-c2cccs2)on1 | 12.6 µM [rising, partial curve] [measured here: IkB-luc green channel] |
| Cc1ccc(SCC(=O)Nc2ccc3oc(-c4ccccc4F)nc3c2)cc1 | 0.2 µM [falling, full curve, poor fit] |
| CCOC(=O)c1ccccc1NC(=O)c1cnc(N2CCOCC2)c2ccccc12 | 0.631 µM [rising, full curve, poor fit] |
